Source: PubChem BioAssay AID1159584 (Peter MacCallum Cancer Centre, 2016)

Aim: 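Knock-downs that harm CDH1-null cells more than parental MCF10A cells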 (primary screen)
System: human MCF10A breast epithelial cells, parental and CDH1-null
Knock-down reagent: siRNA against human genes
Measurement: 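Cell viability by CellTiter-Glo ATP luminescence, each line scaled to the mean of mock wells across plates, then CDH1-null over parental ratio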
Scale: CDH1-null / parental viability ratio: higher = CDH1-null cells survive relatively better than parental; CDH1-null viability vs mock: higher = more viable CDH1-null cells
Units: CDH1-null viability vs mock in fraction of mock
The deposit covers about 18,000 reagents; this is an unselected part. Not all columns of the deposit are shown. Reagent sequences are not shown. The record does not give: the amount of reagent, the time to read-out.

How did the screen score SNX20?
CDH1-null / parental viability ratio: 0.92; CDH1-null viability vs mock: 1.17

With NXT1, how do the results read?
CDH1-null / parental viability ratio: 0.49; CDH1-null viability vs mock: 0.4

For OR4M1, what does the deposit list?
CDH1-null / parental viability ratio: 1.14; CDH1-null viability vs mock: 0.66

What is on record for KPNA5?
CDH1-null / parental viability ratio: 1.02; CDH1-null viability vs mock: 0.63

How did the screen score KIF12?
CDH1-null / parental viability ratio: 1; CDH1-null viability vs mock: 0.48

With SLC9B1, what does the deposit list?
CDH1-null / parental viability ratio: 1.16; CDH1-null viability vs mock: 0.93

What did the screen give for MED31?
CDH1-null / parental viability ratio: 1.09; CDH1-null viability vs mock: 0.74

What did the screen give for SCGB2B2?
CDH1-null / parental viability ratio: 1.09; CDH1-null viability vs mock: 0.96

What is on record for NCKIPSD?
CDH1-null / parental viability ratio: 1.24; CDH1-null viability vs mock: 0.78

With OR2T11, what does the deposit list?
CDH1-null / parental viability ratio: 1.31; CDH1-null viability vs mock: 0.8

What did the screen give for RAB38?
CDH1-null / parental viability ratio: 0.82; CDH1-null viability vs mock: 0.41

How did the screen score NUP210L?
CDH1-null / parental viability ratio: 0.98; CDH1-null viability vs mock: 0.86

What is on record for FASTKD1?
CDH1-null / parental viability ratio: 1.21; CDH1-null viability vs mock: 0.68

Which result is listed for PSD2?
CDH1-null / parental viability ratio: 0.84; CDH1-null viability vs mock: 0.66

Which result is listed for FHL2?
CDH1-null / parental viability ratio: 1; CDH1-null viability vs mock: 0.66

What did the screen give for MIPEP?
CDH1-null / parental viability ratio: 1.16; CDH1-null viability vs mock: 1.03

For ERCC1, what does the deposit list?
CDH1-null / parental viability ratio: 1.07; CDH1-null viability vs mock: 0.75

A portion taken from the entries so far:
PSD2: CDH1-null / parental viability ratio = 0.84; CDH1-null viability vs mock = 0.66
FHL2: CDH1-null / parental viability ratio = 1; CDH1-null viability vs mock = 0.66
MIPEP: CDH1-null / parental viability ratio = 1.16; CDH1-null viability vs mock = 1.03

More entries follow:
Which result is listed for SECISBP2?
CDH1-null / parental viability ratio: 0.87; CDH1-null viability vs mock: 0.84

With PLBD2, how do the results read?
CDH1-null / parental viability ratio: 0.9; CDH1-null viability vs mock: 0.69

With CTSF, how do the results read?
CDH1-null / parental viability ratio: 1.09; CDH1-null viability vs mock: 0.94

What did the screen give for KCNN3?
CDH1-null / parental viability ratio: 1.27; CDH1-null viability vs mock: 1

What is on record for CELF3?
CDH1-null / parental viability ratio: 1.13; CDH1-null viability vs mock: 0.54

What did the screen give for FREY1?
CDH1-null / parental viability ratio: 1.11; CDH1-null viability vs mock: 1.07

What did the screen give for ZBTB10?
CDH1-null / parental viability ratio: 0.67; CDH1-null viability vs mock: 0.4

Which result is listed for SLC35A3?
CDH1-null / parental viability ratio: 0.93; CDH1-null viability vs mock: 0.82

What is on record for LINC00477?
CDH1-null / parental viability ratio: 1.19; CDH1-null viability vs mock: 1

For FBXL8, what does the deposit list?
CDH1-null / parental viability ratio: 0.98; CDH1-null viability vs mock: 1.02

How did the screen score CD3G?
CDH1-null / parental viability ratio: 1.12; CDH1-null viability vs mock: 0.9

With PODXL2, what was measured?
CDH1-null / parental viability ratio: 0.89; CDH1-null viability vs mock: 0.64

With RGL1, what was measured?
CDH1-null / parental viability ratio: 1.25; CDH1-null viability vs mock: 1.05

With TAF15, how do the results read?
CDH1-null / parental viability ratio: 0.98; CDH1-null viability vs mock: 0.94

How did the screen score ISX?
CDH1-null / parental viability ratio: 1.1; CDH1-null viability vs mock: 0.74

For SLC23A1, what does the deposit list?
CDH1-null / parental viability ratio: 0.77; CDH1-null viability vs mock: 0.89

With TCF3, how do the results read?
CDH1-null / parental viability ratio: 0.88; CDH1-null viability vs mock: 0.67

For ZNF311, what was measured?
CDH1-null / parental viability ratio: 1.1; CDH1-null viability vs mock: 0.92
